Assay results as given in PMC3360035.
These are yes or no findings as the source states them, for the method shown. For some assays here: A result given as binding can be weak or reduced; the word gives no strength.

Key:
[1] = biological target: Human γD-crystallin V75D (human); assay: SEC; native mixing: HγD and chaperone 1:1, each 1 mg/ml in SEC buffer, 37°C with gentle rotation for 14 to 28 days; filtered (0.2 µm), Superose 6 10/300 GL; fractions checked by Western blot (αB, HγD) or Trp fluorescence; both purified
[2] = biological target: Human γD-crystallin V75D (human); assay: SEC; HγD unfolded overnight in 5 M GdnHCl at 37°C, diluted 10-fold into refolding buffer (100 mM sodium phosphate, 1 mM EDTA, 5 mM DTT, pH 7.0) with αB in 5-fold molar excess (0.1 mg/ml HγD, 0.5 mg/ml αB, 0.5 M GdnHCl), 37°C; the suppression reaction then run over Superose 6; both purified

binding [1]: no binding (tested: 1 mg/ml each)
binding [2]: binds
B1: αB-crystallin, wild type (protein, UniProt P02511 1-175)
chain: MDIAIHHPWIRRPFFPFHSPSRLFDQFFGEHLLESDLFPTSTSLSPFYLRPPSFLRAPSWFDTGLSEMRLEKDRFSVNLDVKHFSPEELKVKVLGDVIEVHGKHEERQDEHGFISREFHRKYRIPADVDPLTITSSLSSDGVLTVNGPRKQVSGPERTIPITREEKPAVTAAPKK
